Experimental findings from article doi:10.1101/2020.03.14.989954 are described below.

Chains of the proteins cited; added tags and fusions are not shown.
UniProt Q92963: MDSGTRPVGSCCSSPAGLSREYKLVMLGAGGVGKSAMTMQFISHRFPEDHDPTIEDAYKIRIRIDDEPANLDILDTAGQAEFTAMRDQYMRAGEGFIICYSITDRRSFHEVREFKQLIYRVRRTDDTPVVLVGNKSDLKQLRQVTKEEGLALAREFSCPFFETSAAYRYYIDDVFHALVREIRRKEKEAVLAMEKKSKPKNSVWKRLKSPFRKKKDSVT

Assay [1] has as its target T1, GST-LZTR1 (UniProt Q8N653).
T1 sequence: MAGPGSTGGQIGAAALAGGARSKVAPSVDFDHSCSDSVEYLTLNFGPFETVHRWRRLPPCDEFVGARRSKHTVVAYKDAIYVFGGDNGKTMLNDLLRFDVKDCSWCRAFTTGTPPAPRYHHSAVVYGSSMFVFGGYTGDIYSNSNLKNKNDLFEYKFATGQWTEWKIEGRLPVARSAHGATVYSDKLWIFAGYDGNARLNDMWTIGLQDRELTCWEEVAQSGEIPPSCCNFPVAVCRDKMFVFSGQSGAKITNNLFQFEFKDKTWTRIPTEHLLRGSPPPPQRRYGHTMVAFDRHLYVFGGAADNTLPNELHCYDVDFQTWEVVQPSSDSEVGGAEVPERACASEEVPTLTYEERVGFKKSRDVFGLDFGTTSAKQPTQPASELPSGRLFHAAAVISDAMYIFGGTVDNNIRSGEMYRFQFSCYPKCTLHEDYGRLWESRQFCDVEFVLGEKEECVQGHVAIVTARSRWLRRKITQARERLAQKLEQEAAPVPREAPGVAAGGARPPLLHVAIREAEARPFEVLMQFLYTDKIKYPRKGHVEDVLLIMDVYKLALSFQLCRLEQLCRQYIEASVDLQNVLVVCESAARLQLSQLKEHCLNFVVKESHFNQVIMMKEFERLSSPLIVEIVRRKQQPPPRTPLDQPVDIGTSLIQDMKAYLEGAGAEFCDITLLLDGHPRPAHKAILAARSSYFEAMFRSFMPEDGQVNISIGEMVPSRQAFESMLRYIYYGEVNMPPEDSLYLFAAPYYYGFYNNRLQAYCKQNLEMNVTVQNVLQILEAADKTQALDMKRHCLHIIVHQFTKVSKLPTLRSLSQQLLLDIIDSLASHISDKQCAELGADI
As to the kind of experiment: pull-down.

The target of assay [2] is T2, FLAG-LZTR1 (UniProt Q8N653).
T2 sequence: T1 sequence
As to the kind of experiment: co-IP.

The target in assay [3] is T3, endogenous LZTR1 (U87-MG) (human (endogenous in U87-MG)) (UniProt Q8N653).
T3 sequence: T1 sequence
As to the kind of experiment: co-IP.

For assay [4], the target named is T4, FLAG-LZTR1, Q8N653.
T4 chain: T1 sequence
In words: co-IP. The conditions noted are these: remark: other sources report otherwise.

Assay [5] addresses T5, LZTR1, wild type, full length (transfected, Figs 1H, 3B, 3E, 3G, 4B), Q8N653.
T5 chain: T1 sequence
In words: co-IP. The conditions noted are these: remark: other sources report otherwise.

Assay [6] has as its target endogenous RIT1 (U87-MG) (human (endogenous in U87-MG)) (UniProt Q92963). As to the kind of experiment: co-IP.

These are yes or no findings as the source states them, for the method shown. For some of these results: In cells and extracts the contact can be indirect. Some entries that bind do so weakly or less than the wild type. For some of these results: Tags and fused reporters may be left off the sequences shown.

Regarding His-RIT1 (from UniProt Q92963 1-219), in assay [1], the binding result is given as “binds”. With SOS1 (from UniProt Q07889 1-1333), the binding result in assay [2] is on record as “no binding”.

For “endogenous RIT1 (293T) (from UniProt Q92963 1-219)”, the binding result in assay [2] is “binds”. With “endogenous RIT1 (U87-MG) (from UniProt Q92963 1-219)”, the binding result in assay [3] is recorded as “binds”.

B1: ARAF, P10398 1-606 (protein)
chain: MEPPRGPPANGAEPSRAVGTVKVYLPNKQRTVVTVRDGMSVYDSLDKALKVRGLNQDCCVVYRLIKGRKTVTAWDTAIAPLDGEELIVEVLEDVPLTMHNFVRKTFFSLAFCDFCLKFLFHGFRCQTCGYKFHQHCSSKVPTVCVDMSTNRQQFYHSVQDLSGGSRQHEAPSNRPLNELLTPQGPSPRTQHCDPEHFPFPAPANAPLQRIRSTSTPNVHMVSTTAPMDSNLIQLTGQSFSTDAAGSRGGSDGTPRGSPSPASVSSGRKSPHSKSPAEQRERKSLADDKKKVKNLGYRDSGYYWEVPPSEVQLLKRIGTGSFGTVFRGRWHGDVAVKVLKVSQPTAEQAQAFKNEMQVLRKTRHVNILLFMGFMTRPGFAIITQWCEGSSLYHHLHVADTRFDMVQLIDVARQTAQGMDYLHAKNIIHRDLKSNNIFLHEGLTVKIGDFGLATVKTRWSGAQPLEQPSGSVLWMAAEVIRMQDPNPYSFQSDVYAYGVVLYELMTGSLPYSHIGCRDQIIFMVGRGYLSPDLSKISSNCPKAMRRLLSDCLKFQREERPLFPQILATIELLQRSLPKIERSASEPSLHRTQADELPACLLSAARLVP
As to B1, the binding result in assay [4] is listed as “no binding”.

B2: LZTR1, wild type, full length (transfected, Figs 1H, 3B, 3E, 3G, 4B), Q8N653 1-840 (protein)
chain: T1 sequence
In the case of B2, in assay [5], the binding entry is “binds”.

B3: endogenous LZTR1 (U87-MG) (protein, UniProt Q8N653 1-840)
chain: T1 sequence
On to B3, for which, in assay [6], the binding result is given as “binds”.
